Source: publication PMC12551952
No constants are given. Whether binding was seen depends on the method and setting. In cells and extracts the contact can be indirect. Some binding calls cover weakened binding; strength is not graded here. For part of these data: Tags and fused reporters may be left off the sequences shown.

By UniProt entry, the sequences of proteins in these tests, tags left out. Where a name states a change or a piece, a line headed by the entry shows the natural chain unless it says otherwise. Chains listed by the source or under a name are the forms on record and can include a tag or linker.
UniProt Q9D4K7: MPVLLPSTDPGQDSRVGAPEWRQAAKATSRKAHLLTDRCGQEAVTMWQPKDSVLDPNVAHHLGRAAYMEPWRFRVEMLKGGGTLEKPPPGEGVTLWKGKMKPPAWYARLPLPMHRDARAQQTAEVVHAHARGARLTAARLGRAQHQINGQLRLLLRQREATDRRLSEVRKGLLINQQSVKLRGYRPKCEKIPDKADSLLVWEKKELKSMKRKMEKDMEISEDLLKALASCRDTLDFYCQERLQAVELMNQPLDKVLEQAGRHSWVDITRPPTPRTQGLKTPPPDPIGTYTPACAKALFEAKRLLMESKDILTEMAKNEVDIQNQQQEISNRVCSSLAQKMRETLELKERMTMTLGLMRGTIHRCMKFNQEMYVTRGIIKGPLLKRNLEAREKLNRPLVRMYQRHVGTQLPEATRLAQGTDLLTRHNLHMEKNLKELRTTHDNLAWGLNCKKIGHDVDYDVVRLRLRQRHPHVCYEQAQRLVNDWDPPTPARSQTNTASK
HA-tagged WT-CFAP77 (A0A087WRI3-2, form named): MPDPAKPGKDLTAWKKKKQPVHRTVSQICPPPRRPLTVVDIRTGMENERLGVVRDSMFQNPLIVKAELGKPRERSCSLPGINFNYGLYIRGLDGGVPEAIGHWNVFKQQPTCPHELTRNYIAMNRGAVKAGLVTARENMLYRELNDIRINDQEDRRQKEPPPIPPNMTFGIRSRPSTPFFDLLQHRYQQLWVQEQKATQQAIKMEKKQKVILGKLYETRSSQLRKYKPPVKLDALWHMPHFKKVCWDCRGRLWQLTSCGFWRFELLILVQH

What was measured:
[1] = molecular target: T1, FLAG-tagged TEX43 (mouse) (UniProt Q9D9I1); assay: co-IP; HEK293T cells co-transfected with FLAG-, MYC- and/or HA-tagged plasmids, lysed 48 h later in Pierce IP Lysis Buffer; lysates incubated overnight with FLAG antibody at 4°C, then Protein A/G agarose for 4 h; five washes; Western blot with anti-FLAG, anti-MYC or anti-HA
T1 sequence: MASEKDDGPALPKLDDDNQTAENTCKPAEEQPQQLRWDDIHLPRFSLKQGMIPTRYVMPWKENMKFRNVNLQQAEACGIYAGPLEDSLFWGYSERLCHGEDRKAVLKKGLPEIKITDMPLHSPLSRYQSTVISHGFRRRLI

[2] = molecular target: FLAG-tagged WT-CCDC105 (mouse) (UniProt Q9D4K7); assay: as above

Row | binding [1] | binding [2] | Substance
1 | no binding | binds | MYC-tagged CFAP77 (from UniProt A0A087WRI3-2 1-271)
2 | – | binds | HA-tagged WT-CFAP77 (from UniProt A0A087WRI3-2 1-271)
